# These are yes or no findings as the source states them, for the method shown. In cells and extracts the contact can be indirect. Here binding means that the protein was enriched with, or labelled near, the bait; the list need not be complete.
# Chains of the proteins cited; added tags and fusions are not shown.
# UniProt P25106: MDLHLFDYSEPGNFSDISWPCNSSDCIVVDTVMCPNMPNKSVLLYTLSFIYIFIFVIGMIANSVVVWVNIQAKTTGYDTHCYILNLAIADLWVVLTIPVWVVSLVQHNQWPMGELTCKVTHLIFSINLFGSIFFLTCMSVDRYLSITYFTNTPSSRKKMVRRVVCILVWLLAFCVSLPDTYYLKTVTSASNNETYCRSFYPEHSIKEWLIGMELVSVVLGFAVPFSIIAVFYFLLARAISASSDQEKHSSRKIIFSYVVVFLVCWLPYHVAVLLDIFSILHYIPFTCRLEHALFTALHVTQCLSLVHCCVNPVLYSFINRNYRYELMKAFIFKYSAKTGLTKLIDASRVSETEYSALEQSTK
# UniProt Q14203: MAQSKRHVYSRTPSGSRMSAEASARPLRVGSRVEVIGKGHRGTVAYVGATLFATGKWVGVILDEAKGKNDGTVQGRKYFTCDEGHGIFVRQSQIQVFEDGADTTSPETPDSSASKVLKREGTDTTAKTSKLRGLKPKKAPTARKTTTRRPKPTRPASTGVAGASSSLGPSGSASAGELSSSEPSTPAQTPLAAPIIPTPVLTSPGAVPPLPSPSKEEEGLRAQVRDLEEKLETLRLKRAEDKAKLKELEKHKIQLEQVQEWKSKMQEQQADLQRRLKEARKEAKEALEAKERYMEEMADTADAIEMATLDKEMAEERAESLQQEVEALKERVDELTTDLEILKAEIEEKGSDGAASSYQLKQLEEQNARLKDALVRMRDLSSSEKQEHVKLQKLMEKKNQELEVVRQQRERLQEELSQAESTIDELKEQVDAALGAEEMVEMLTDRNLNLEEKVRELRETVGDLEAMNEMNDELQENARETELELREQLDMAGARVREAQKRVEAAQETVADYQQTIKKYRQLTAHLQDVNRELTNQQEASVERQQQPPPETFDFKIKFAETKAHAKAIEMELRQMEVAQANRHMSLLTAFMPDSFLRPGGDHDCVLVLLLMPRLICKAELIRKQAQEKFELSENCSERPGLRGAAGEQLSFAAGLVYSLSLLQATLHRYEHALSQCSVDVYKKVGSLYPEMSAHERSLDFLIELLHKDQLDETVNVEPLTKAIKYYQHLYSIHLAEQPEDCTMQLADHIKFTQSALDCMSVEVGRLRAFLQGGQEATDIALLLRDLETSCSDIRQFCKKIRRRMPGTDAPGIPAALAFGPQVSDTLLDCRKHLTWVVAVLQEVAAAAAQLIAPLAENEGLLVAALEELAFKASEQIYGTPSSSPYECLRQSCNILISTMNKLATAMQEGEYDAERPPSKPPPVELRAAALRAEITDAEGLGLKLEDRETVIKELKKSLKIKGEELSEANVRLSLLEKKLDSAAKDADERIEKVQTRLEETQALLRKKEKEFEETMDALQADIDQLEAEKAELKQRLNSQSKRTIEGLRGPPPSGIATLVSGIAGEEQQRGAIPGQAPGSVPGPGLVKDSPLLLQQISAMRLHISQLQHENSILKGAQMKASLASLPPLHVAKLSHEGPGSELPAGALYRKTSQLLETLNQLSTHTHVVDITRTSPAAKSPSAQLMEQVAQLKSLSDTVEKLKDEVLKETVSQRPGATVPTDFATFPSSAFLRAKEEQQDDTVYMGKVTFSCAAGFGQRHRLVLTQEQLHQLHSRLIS
# UniProt Q9UKV5: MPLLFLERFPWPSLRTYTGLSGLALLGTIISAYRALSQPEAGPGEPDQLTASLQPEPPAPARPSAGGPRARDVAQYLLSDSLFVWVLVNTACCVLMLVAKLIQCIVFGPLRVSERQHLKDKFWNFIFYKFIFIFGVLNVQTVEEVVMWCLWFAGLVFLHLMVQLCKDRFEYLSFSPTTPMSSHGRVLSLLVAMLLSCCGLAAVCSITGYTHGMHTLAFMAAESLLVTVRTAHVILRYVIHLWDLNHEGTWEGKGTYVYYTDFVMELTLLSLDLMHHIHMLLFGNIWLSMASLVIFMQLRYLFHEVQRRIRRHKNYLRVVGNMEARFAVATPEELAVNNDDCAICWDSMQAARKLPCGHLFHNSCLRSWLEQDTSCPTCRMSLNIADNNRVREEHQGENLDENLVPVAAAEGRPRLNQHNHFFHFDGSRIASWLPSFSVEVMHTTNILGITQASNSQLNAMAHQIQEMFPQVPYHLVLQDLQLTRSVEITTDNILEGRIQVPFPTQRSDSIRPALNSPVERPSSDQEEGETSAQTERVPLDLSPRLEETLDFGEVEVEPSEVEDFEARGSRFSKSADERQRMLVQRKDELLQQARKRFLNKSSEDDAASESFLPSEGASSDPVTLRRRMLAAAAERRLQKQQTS
# UniProt Q9ULT8: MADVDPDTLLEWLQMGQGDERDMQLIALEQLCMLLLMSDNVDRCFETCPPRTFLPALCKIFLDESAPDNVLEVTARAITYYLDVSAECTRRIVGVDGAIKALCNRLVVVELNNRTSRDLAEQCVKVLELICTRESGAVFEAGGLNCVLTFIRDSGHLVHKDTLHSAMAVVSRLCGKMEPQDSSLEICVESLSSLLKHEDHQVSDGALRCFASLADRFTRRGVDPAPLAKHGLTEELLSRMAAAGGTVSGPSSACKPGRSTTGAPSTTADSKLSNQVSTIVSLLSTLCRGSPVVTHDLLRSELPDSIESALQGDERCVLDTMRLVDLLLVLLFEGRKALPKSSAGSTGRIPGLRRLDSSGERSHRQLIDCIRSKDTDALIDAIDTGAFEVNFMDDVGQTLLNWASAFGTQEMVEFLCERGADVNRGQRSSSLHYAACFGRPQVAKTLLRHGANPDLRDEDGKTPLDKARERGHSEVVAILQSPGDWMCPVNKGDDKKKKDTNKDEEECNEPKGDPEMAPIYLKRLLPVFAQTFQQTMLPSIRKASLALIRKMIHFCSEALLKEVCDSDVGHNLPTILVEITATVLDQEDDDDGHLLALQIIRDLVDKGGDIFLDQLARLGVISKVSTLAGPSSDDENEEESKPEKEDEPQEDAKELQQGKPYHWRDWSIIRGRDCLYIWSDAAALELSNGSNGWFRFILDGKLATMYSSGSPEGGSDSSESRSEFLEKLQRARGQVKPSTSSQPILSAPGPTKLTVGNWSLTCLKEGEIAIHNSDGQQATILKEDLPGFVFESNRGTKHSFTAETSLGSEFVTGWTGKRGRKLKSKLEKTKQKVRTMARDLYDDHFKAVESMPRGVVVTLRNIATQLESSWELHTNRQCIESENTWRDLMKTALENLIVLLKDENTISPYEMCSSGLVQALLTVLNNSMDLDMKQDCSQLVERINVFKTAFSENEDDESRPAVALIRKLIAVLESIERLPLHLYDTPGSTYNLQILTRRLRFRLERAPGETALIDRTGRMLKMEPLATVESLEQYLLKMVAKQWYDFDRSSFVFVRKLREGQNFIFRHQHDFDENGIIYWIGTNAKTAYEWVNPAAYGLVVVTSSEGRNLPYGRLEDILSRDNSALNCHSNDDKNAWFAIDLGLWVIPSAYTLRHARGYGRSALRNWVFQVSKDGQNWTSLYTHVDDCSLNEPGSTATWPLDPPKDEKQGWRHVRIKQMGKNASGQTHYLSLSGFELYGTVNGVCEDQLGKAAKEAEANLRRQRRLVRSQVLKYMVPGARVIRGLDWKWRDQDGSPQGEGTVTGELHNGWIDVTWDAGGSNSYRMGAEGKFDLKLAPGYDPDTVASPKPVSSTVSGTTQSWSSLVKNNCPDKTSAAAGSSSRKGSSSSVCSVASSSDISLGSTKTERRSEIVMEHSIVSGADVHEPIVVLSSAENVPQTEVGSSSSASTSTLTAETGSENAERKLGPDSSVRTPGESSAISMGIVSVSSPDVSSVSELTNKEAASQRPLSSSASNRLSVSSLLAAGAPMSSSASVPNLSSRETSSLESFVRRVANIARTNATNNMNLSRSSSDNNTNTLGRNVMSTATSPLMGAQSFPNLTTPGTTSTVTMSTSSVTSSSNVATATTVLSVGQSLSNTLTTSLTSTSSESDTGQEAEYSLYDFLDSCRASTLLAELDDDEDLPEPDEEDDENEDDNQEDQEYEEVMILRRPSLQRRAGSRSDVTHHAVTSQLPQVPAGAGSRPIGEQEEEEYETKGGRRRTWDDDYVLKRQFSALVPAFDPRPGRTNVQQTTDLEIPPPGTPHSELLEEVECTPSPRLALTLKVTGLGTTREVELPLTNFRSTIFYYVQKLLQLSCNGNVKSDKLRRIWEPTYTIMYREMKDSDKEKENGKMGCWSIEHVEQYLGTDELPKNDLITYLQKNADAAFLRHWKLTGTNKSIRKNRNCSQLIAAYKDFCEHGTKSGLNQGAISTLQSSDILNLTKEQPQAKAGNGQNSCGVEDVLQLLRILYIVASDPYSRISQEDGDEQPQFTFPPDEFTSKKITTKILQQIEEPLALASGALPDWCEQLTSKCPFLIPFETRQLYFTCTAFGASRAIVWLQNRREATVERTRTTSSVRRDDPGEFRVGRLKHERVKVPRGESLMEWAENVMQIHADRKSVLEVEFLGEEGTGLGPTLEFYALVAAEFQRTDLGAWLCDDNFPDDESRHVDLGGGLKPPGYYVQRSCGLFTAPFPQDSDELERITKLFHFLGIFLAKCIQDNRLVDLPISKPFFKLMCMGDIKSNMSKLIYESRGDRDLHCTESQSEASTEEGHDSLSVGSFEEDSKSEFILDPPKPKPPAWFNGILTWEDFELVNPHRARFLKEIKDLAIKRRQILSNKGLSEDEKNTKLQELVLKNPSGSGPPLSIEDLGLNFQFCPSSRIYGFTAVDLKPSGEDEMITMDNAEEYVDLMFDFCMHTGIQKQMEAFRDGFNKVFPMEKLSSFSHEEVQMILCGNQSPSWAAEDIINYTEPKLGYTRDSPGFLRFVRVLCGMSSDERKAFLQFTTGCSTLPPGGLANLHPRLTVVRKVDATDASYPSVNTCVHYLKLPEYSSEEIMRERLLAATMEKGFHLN
# UniProt P17302: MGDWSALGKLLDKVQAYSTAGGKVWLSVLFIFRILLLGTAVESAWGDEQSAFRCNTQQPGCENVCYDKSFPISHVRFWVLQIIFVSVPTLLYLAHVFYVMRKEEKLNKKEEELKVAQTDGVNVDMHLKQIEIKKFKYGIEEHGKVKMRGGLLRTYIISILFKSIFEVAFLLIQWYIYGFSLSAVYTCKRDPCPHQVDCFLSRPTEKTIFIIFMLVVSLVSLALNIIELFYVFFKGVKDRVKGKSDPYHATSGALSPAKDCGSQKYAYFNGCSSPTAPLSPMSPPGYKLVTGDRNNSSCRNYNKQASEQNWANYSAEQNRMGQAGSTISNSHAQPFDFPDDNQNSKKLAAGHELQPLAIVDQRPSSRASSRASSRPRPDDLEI
# UniProt P08754: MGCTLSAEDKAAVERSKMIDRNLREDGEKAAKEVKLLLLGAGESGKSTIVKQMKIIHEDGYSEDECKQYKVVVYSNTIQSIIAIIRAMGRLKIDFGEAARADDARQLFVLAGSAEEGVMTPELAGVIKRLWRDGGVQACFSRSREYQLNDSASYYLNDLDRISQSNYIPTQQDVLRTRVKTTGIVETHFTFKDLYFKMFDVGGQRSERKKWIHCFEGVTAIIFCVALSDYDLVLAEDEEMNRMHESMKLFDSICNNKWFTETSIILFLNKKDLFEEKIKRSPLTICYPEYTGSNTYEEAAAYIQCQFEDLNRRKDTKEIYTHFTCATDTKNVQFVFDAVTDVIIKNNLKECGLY
# UniProt Q9NRR5: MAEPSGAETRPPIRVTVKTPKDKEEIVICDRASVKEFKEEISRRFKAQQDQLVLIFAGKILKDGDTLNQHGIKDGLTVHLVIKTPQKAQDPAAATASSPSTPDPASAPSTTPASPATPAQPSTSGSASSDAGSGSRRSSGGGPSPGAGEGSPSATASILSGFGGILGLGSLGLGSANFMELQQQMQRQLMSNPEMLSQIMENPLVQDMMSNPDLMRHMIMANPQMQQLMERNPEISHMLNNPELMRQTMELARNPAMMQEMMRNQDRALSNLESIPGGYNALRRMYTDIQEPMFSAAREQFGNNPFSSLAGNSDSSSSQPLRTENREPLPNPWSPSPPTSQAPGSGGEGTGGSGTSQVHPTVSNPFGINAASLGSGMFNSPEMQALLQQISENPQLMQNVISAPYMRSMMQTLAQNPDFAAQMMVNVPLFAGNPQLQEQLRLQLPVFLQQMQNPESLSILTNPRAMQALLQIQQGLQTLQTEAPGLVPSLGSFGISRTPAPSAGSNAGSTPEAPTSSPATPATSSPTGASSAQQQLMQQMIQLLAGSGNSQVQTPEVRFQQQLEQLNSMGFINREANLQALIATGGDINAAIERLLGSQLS
# B1: Cytochrome P450 oxidoreductase (POR) (enzyme, UniProt P16435 1-677)
# chain: MGDSHVDTSSTVSEAVAEEVSLFSMTDMILFSLIVGLLTYWFLFRKKKEEVPEFTKIQTLTSSVRESSFVEKMKKTGRNIIVFYGSQTGTAEEFANRLSKDAHRYGMRGMSADPEEYDLADLSSLPEIDNALVVFCMATYGEGDPTDNAQDFYDWLQETDVDLSGVKFAVFGLGNKTYEHFNAMGKYVDKRLEQLGAQRIFELGLGDDDGNLEEDFITWREQFWPAVCEHFGVEATGEESSIRQYELVVHTDIDAAKVYMGEMGRLKSYENQKPPFDAKNPFLAAVTTNRKLNQGTERHLMHLELDISDSKIRYESGDHVAVYPANDSALVNQLGKILGADLDVVMSLNNLDEESNKKHPFPCPTSYRTALTYYLDITNPPRTNVLYELAQYASEPSEQELLRKMASSSGEGKELYLSWVVEARRHILAILQDCPSLRPPIDHLCELLPRLQARYYSIASSSKVHPNSVHICAVVVEYETKAGRINKGVATNWLRAKEPAGENGGRALVPMFVRKSQFRLPFKATTPVIMVGPGTGVAPFIGFIQERAWLRQQGKEVGETLLYYGCRRSDEDYLYREELAQFHRDGALTQLNVAFSREQSHKVYVQHLLKQDREHLWKLIEGGAHIYVCGDARNMARDVQNTFYDIVAELGAMEHAQAVDYIKKLMTKGRYSLDVWS
# B2: Solute carrier family 1 member 5 (SLC1A5) (protein, UniProt Q15758 1-541)
# chain: MVADPPRDSKGLAAAEPTANGGLALASIEDQGAAAGGYCGSRDQVRRCLRANLLVLLTVVAVVAGVALGLGVSGAGGALALGPERLSAFVFPGELLLRLLRMIILPLVVCSLIGGAASLDPGALGRLGAWALLFFLVTTLLASALGVGLALALQPGAASAAINASVGAAGSAENAPSKEVLDSFLDLARNIFPSNLVSAAFRSYSTTYEERNITGTRVKVPVGQEVEGMNILGLVVFAIVFGVALRKLGPEGELLIRFFNSFNEATMVLVSWIMWYAPVGIMFLVAGKIVEMEDVGLLFARLGKYILCCLLGHAIHGLLVLPLIYFLFTRKNPYRFLWGIVTPLATAFGTSSSSATLPLMMKCVEENNGVAKHISRFILPIGATVNMDGAALFQCVAAVFIAQLSQQSLDFVKIITILVTATASSVGAAGIPAGGVLTLAIILEAVNLPVDHISLILAVDWLVDRSCTVLNVEGDALGAGLLQNYVDRTESRSTEPELIQVKSELPLDPLPVPTEEGNPLLKHYRGPAGDATVASEKESVM
# B3: beta-subunit of the electron-transfer protein (ETFB) (protein, UniProt P38117 1-255)
# chain: MAELRVLVAVKRVIDYAVKIRVKPDRTGVVTDGVKHSMNPFCEIAVEEAVRLKEKKLVKEVIAVSCGPAQCQETIRTALAMGADRGIHVEVPPAEAERLGPLQVARVLAKLAEKEKVDLVLLGKQAIDDDCNQTGQMTAGFLDWPQGTFASQVTLEGDKLKVEREIDGGLETLRLKLPAVVTADLRLNEPRYATLPNIMKAKKKKIEVIKPGDLGVDLTSKLSVISVEDPPQRTAGVKVETTEDLVAKLKEIGRI
# Biological target: HA-tagged atypical chemokine receptor 3 (HA-ACKR3) (not stated (human or mouse cDNA cloned)) (UniProt P25106)
# Experiment: affinity purification with mass spectrometry; HA-ACKR3 expressed in HEK293T cells; lysis in 1% DDM, 20 mM Tris-HCl pH 7.5, 100 mM NaCl, 2.5 mM CaCl2; 5 mg protein on agarose-conjugated anti-HA antibody overnight at 4 °C; washes with 0.5 M and 150 mM NaCl; nanoLC-MS/MS with label-free quantification against cells transfected with an empty plasmid
row,Molecule,binding
1,Clathrin (CLTC) (from UniProt Q00610 1-1675),binds
2,Dynactin 1 (DCTN1) (from UniProt Q14203 1-1278),binds
3,E3 ubiquitin-protein ligase AMFR (from UniProt Q9UKV5 1-643) (enzyme),binds
4,E3 ubiquitin-protein ligase HECTD1 (from UniProt Q9ULT8 1-2610) (enzyme),binds
5,E3 ubiquitin-protein ligase HUWE1 (from UniProt Q7Z6Z7 1-4374) (enzyme),binds
6,"Gap Junction Alpha-1 protein (GJA1, Connexin 43, Cx43) (from UniProt P17302 1-382)",binds
7,Gαi3 (GNAI3) (from UniProt P08754 1-354),binds
8,Ubiquilin-4 (UBQLN4) (from UniProt Q9NRR5 1-601),binds
9,tubulin beta-3 chain (TUBB3) (from UniProt Q13509 1-450),binds

# Biological target: HA-tagged atypical chemokine receptor 3 (HA-ACKR3) (not stated (human or mouse cDNA cloned)) (UniProt P25106)
# Experiment: as above
# Remark: another data set of the same source
row,Molecule,binding
1,B1,binds
2,B2,binds
3,B3,binds

# — paper PMC7519114
